Results are given in words; binding and its absence hold for the method and conditions named. Binding seen in cells or lysates may run through a third protein. Some binding calls cover weakened binding; strength is not graded here.
Target: 2HA-PC1-CTT (human polycystin-1 C-terminal tail, aa 4104-4303, N-terminal 2XHA tag) (human) (UniProt P98161)
Test: co-IP; total kidney lysates of N-Pkd1-KO + CTT, J-Pkd1-KO + CTT and N-Pkd1-KO mice, anti-HA magnetic beads overnight at 4 °C in Tris lysis buffer (50 mM Tris pH 7.4, 100 mM NaCl, 0.5% NP-40, 0.5% Triton X100, 2 mM EDTA), blotted for NNT

The chains behind the UniProt entries cited, without tags or fusion partners. Residues count along the entry.
UniProt P98161, residues 4104-4303: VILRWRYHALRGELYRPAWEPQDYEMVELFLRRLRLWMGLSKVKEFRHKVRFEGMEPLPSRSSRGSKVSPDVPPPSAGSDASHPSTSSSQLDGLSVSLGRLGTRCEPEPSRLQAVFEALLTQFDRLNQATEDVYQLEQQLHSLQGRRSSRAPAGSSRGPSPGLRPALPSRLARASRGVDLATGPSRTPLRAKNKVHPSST

binding: binds
B1: Nicotinamide Nucleotide Transhydrogenase (NNT) (enzyme, UniProt Q61941 44-1086)
chain: CKSPVKPGIPYKQLTVGVPKEIFQNEKRVALSPAGVQALVKQGFNVVVESGAGEASKFPDDLYRAAGAQIQGMKEVLASDLVVKVRAPMVNPTLGAHEADFLKPSGTLISFIYPAQNPDLLNKLSERKTTVLAMDQVPRVTIAQGYDALSSMANISGYKAVVLAANHFGRFFTGQITAAGKVPPAKILIVGGGVAGLASAGAAKSMGAVVRGFDTRAAALEQFKSLGAEPLEVDLKESGEGQGGYAKEMSKEFIEAEMKLFAQQCKEVDILISTALIPGKKAPVLFSKEMIESMKEGSVVVDLAAEAGGNFETTKPGELYVHKGITHIGYTDLPSRMATQASTLYSNNITKLLKAISPDKDNFHFEVKDDFDFGTMSHVIRGTVVMKDGKVIFPAPTPKNIPEEAPVKPKTVAELEAEKAGTVSMYTKTLTTASVYSAGLTGMLGLGIVAPNVAFSQMVTTFGLAGIIGYHTVWGVTPALHSPLMSVTNAISGLTAVGGLALMGGHFYPSTTSQSLAALATFISSVNIAGGFLVTQRMLDMFKRPTDPPEYNYLYLLPGGTFVGGYLAALYGGYNIEEIMYLGSGLCCVGALGGLSTQGTARLGNALGMIGVAGGLAATLGGLKPDPQLLAQMSGAMAMGGTIGLTIAKRIQISDLPQLVAAFHSLVGLAAVLTCMAEYIVEYPHFAMDATSNFTKIVAYLGTYIGGVTFSGSLVAYGKLQGILKSAPLLLPGRHALNAGLLAASVGGIIPFMADPSFTTGITCLGSVSGLSTLMGVTLTAAIGGADMPVVITVLNSYSGWALCAEGFLLNNNLLTIVGALIGSSGAILSYIMCVAMNRSLANVILGGYGTTSTAGGKPMEISGTHTEINLDNAVEMIREANSIVITPGYGLCAAKAQYPIADLVKMLTEQGKKVRFGIHPVAGRMPGQLNVLLAEAGVPYDIVLEMDEINSDFPDTDLVLVIGANDTVNSAAQEDPNSIIAGMPVLEVWKSKQVIVMKRSLGVGYAAVDNPIFYKPNTAMLLGDAKKTCDALQAKVRESYQK

Source: PMC10063565
